Assay results: PubChem BioAssay AID504834 (National Center for Advancing Translational Sciences (NCATS), 2011)
Screen size: about 320,000 compounds; about 22,000 (6.9%) were called active. The shares of active, inactive and inconclusive entries below differ from those in the screen. Calls follow the shape of the dose curve; as a rule, active = well fitted inhibition curve with a large enough effect; inconclusive = small, poorly fitted or top-dose-only effect, or another doubt; inactive = no such curve, though single readings can be large or run the other way. A potency beside an inconclusive call is a rough fit, not a confirmed value.

Assay: Primary qHTS for delayed death inhibitors of the malarial parasite plastid, 96 hour incubation
Details: P. falciparum luciferase reporter growth; series mostly up to 28.7 µM
In short: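 Infected RBCs, 2% Hct / 0.05% parasitemia final; luciferase-reporter P. falciparum; cpd 96 h, 37 C, 5% CO2; luciferase detection reagent; luminescence.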
Potency is read from the fitted curve at half-maximal effect.

Row | Compound | Potency
1 | O=C(O)c1nccnc1C(=O)Nc1ccc(Oc2c(Cl)cccc2Cl)nc1 | inconclusive: 9.28 µM [inhibitor, partial curve, poor fit]
2 | O=C(CSc1nccn1-c1ccc(F)cc1)Nc1ccc2c(c1)OCO2 | inconclusive: 16.5 µM [inhibitor, single point]
3 | COc1cc(OC)c(OC)cc1CN1CCN(Cc2cccn2C)CC1 | inactive
4 | Cc1ccc(CSc2nnc(-c3ccc(NS(=O)(=O)c4ccccc4)cc3)o2)cc1 | inconclusive: 10.4 µM [inhibitor, single point]
5 | CCN1C(=O)c2ccccc2Sc2ccc(C(=O)NCCCN(CC(C)C)CC(C)C)cc21 | inactive
6 | COc1ccc(NC(=S)NCc2ccc(F)cc2)cc1 | inactive
7 | Cc1ccc(/C(N)=N/OC(=O)Oc2ccccc2)cc1 | inactive
8 | Cc1c(NC(=O)C2CCCN2S(=O)(=O)c2cccc3nsnc23)cccc1C(=O)O (centres undefined) | active: 9.28 µM
9 | CC(=O)c1cccc(NC(=O)C2CC(=O)N(c3cccc(C)c3C)C2)c1 (centres undefined) | inactive
10 | NS(=O)(=O)c1ccc(Cl)c(C(=O)Nc2ccccc2[N+](=O)[O-])c1 | inconclusive: 8.28 µM [inhibitor, partial curve, poor fit]
11 | CCCCNC(=S)N(C)/N=C/c1ccc(OCC(=O)Nc2c(C)cc(C)cc2C)c(OC)c1 | inconclusive: 10.4 µM [inhibitor, single point]
12 | S=C1NC(c2ccccc2)=CC(c2ccccc2)N1 (centres undefined) | inconclusive: 9.28 µM [inhibitor, single point]
13 | Cc1ccc(CNC(=O)Cn2ccc3cc(S(=O)(=O)N4CCCCCC4)ccc32)cc1 | inconclusive: 3.7 µM [inhibitor, partial curve]
14 | COC(=O)c1ccc(OC(=O)CCc2cc(OC)c(OC)c(OC)c2)cc1 | inactive
15 | COc1ccc(NC(=O)c2ccc(-c3ccccc3)cc2)cc1NS(=O)(=O)c1ccc(F)cc1 | inconclusive: 2.33 µM [inhibitor, full curve]
16 | COc1cc(C(C(=O)NC2CCCC2)N(C(=O)c2snc(C(N)=O)c2N)C2CCCC2)cc(OC)c1OC (centres undefined) | inconclusive: 3.7 µM [inhibitor, partial curve, poor fit]
17 | CCOC(=O)c1c(C)nc2sc3c(=O)n(-c4ccc(C(C)=O)cc4)cnc3c2c1-c1ccc(Cl)cc1 | active: 3.7 µM
18 | COc1ccc2c(CC(=O)NC3CCCc4ccccc43)coc2c1 (centres undefined) | inconclusive: 13.1 µM [inhibitor, single point]
19 | Cc1noc(C)c1C(=O)N1CCCC(N2CCN(c3cccc(C(F)(F)F)c3)CC2)C1 (centres undefined) | inactive

Molecules shown so far containing a COOH group (two):
Row | Compound | Potency
1 | O=C(O)c1nccnc1C(=O)Nc1ccc(Oc2c(Cl)cccc2Cl)nc1 | inconclusive: 9.28 µM [inhibitor, partial curve, poor fit]
8 | Cc1c(NC(=O)C2CCCN2S(=O)(=O)c2cccc3nsnc23)cccc1C(=O)O (centres undefined) | active: 9.28 µM
